Results are given in words; binding and its absence hold for the method and conditions named. In cells and extracts the contact can be indirect. Binding can be weak; no strength is given.

Sequences of proteins named here, by UniProt entry; tags and fusion partners are left off. A change or cut given only in a name is not applied to a line headed by its entry.
UniProt O43736: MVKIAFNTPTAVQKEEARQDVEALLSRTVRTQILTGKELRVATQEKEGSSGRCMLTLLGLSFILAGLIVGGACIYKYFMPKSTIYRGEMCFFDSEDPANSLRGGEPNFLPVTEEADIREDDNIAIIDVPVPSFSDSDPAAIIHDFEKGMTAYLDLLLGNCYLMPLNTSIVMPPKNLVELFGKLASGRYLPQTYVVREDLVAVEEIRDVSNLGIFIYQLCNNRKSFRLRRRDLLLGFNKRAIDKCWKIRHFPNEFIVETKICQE
UniProt Q13635: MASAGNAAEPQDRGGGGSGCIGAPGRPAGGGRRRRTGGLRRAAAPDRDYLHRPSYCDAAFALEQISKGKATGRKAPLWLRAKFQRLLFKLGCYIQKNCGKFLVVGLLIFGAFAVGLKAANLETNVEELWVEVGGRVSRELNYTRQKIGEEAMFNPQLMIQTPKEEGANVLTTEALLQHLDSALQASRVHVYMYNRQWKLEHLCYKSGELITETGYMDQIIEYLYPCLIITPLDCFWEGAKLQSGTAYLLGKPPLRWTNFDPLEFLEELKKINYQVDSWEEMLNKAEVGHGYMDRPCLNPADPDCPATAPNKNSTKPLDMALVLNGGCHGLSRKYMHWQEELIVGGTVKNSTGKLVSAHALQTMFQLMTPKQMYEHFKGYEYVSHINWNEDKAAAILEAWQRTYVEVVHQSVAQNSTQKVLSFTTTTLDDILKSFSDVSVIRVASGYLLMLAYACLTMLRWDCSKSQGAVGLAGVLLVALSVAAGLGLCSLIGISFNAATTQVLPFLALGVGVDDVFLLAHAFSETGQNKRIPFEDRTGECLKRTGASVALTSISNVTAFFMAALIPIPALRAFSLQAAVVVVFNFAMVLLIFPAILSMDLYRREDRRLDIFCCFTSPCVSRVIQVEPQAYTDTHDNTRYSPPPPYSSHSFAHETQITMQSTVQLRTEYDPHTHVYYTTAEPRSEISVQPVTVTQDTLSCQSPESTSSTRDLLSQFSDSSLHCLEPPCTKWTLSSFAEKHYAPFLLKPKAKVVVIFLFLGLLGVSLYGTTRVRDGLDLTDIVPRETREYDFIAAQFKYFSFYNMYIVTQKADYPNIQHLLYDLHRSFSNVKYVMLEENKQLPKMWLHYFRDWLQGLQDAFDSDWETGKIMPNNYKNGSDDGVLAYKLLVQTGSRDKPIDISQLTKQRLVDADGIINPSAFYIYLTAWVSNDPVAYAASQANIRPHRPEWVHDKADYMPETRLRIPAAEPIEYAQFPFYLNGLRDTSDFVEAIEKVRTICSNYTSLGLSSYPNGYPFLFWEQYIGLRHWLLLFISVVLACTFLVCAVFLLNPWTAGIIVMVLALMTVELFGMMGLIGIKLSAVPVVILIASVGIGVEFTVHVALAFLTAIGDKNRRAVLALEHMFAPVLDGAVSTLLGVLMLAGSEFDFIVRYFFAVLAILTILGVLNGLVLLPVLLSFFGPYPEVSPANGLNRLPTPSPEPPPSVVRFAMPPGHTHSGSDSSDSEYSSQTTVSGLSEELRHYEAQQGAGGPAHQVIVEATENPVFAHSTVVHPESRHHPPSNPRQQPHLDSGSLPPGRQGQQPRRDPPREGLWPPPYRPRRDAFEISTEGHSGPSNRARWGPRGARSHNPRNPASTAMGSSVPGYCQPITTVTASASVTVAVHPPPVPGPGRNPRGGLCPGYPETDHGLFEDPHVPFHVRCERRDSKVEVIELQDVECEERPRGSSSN

This assay concerns the target myc-tagged ITM2A (integral membrane protein 2A) (UniProt O43736). The assay is described as follows: co-IP; HEK293 co-transfected with two plasmids, lysed 24 h later in 50 mM Tris HCl pH 7.5, 150 mM NaCl, 1% NP-40, 0.05% sodium deoxycholate, 1 mM EDTA; anti-tag antibody (anti-HA or anti-myc) and Dynabeads Protein G at 4 °C; Western blot for the other tag. (A western blot detects proteins with antibodies after separation by electrophoresis.)

“PTCH1ΔML (eGFP-tagged) (from UniProt Q13635) (receptor)”: the binding result is reported as “binds”.

For the substance “PTCH1ΔMLΔCTD (eGFP-tagged) (from UniProt Q13635) (receptor)”, the binding result is on record as “binds”.

(Values after paper PMC8394137.)
